Source: paper PMC4922050
Numbering of substitutions follows the chain as printed. No constants are given. Whether binding was seen depends on the method and setting. For some assays here: Binding seen in cells or lysates may run through a third protein. Some entries that bind do so weakly or less than the wild type. Tags and fused reporters may be left off the sequences shown.

By UniProt entry, the sequences of proteins in these tests, tags left out.
UniProt Q15078: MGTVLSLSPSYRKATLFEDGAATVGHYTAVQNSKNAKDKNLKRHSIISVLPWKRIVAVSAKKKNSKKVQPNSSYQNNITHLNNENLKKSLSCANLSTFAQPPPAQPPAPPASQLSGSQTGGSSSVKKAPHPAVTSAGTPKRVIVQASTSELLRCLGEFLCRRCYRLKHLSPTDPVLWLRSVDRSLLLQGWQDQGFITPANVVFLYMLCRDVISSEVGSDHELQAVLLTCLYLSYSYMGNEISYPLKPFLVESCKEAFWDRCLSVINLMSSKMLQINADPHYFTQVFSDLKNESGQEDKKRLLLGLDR
UniProt P28482: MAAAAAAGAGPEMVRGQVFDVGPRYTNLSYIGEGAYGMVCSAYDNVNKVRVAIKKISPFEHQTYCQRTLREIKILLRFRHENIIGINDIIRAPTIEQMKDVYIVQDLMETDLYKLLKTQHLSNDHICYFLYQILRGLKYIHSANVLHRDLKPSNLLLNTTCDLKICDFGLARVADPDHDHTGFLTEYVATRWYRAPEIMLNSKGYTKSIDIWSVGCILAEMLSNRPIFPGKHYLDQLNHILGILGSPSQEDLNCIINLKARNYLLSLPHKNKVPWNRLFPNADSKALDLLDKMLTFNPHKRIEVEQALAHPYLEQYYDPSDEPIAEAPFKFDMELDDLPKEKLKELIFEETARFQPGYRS
UniProt P51452: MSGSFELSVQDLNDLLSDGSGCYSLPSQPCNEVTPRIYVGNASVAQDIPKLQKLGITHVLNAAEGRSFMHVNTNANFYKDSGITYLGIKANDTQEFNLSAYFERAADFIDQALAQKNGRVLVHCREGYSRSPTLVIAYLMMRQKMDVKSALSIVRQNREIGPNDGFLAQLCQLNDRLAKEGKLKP

Legend:
[1] = biological target: T1, GST-tagged recombinant full-length VRK3 (vaccinia-related kinase 3), wild type (human) (UniProt Q8IV63); assay: pull-down; GST or GST-VRK3 incubated overnight with SH-SY5Y cell lysates in Triton lysis buffer with 1 mM DTT and 10% glycerol, then glutathione-sepharose 4B beads at 4 °C for 1 h; blot; only the target purified
T1 sequence: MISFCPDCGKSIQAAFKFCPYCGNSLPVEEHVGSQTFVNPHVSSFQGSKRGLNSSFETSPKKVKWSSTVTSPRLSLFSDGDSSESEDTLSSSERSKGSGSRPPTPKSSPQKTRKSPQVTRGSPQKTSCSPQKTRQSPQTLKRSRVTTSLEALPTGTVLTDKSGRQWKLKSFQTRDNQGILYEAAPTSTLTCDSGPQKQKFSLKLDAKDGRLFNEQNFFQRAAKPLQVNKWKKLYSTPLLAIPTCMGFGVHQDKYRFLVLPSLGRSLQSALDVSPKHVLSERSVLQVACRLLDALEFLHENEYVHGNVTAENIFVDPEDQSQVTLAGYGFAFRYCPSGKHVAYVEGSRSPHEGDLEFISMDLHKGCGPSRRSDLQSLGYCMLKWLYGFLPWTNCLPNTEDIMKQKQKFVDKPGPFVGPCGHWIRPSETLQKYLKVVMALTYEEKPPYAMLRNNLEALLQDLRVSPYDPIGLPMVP

GST-VRK3^S108E (human) = biological target: T2, GST-VRK3^S108E (human) (UniProt Q8IV63); assay: pull-down; GST-VRK3 (wild type, S108A, S108E) incubated overnight with recombinant VHR or recombinant phospho-ERK2 in Triton lysis buffer with 1 mM DTT and 10% glycerol, then glutathione-sepharose 4B beads at 4 °C for 1 h; both purified
T2 sequence: T1 sequence with S108E

flag-tagged VRK3 (human) = biological target: T3, flag-tagged VRK3 (human) (UniProt Q8IV63); assay: co-IP; lysates of SH-SY5Y cells overexpressing flag-tagged VRK3, Triton lysis buffer; antibodies overnight, protein G beads at 4 °C for 1 h; the precipitating antibody is not given
T3 sequence: T1 sequence

Substance	binding [1]	binding (GST-VRK3^S108E (human))	binding (flag-tagged VRK3 (human))
p35, activator of CDK5 (from UniProt Q15078 1-307)	binds	–	–
purified recombinant phospho-ERK2 protein (from UniProt P28482 1-360)	–	binds	–
vaccinia H1-related (VHR) phosphatase, endogenous (from UniProt P51452 1-185)	–	–	binds
cyclin-dependent kinase 5 (CDK5), endogenous (from UniProt Q00535 1-292)	binds	–	binds
